Some results were stated once for a whole list of compounds, not compound by compound.
Test: Moisture sorption (Dynamic Vapor Water Sorption analyzer)
Type: physicochemical
Details: 25° C., full 0-80% RH range tested
Experimental: Moisture sorption data were collected at 25° C. from 0% to 80% RH using a Surface Measurement Systems Dynamic Vapor Water Sorption analyzer. The equilibrium window was for a dm/dT of 0.0003 or a maximum time of 120 minutes.

SMILES	moisture sorbed
CCC(=O)[N-]S(=O)(=O)c1ccc(-c2c(-c3ccccc3)noc2C)cc1.[Na+] [Form E, parecoxib sodium]	less than 1%
CCC(=O)[N-]S(=O)(=O)c1ccc(-c2c(-c3ccccc3)noc2C)cc1.[Na+] [Form B, parecoxib sodium]	less than 1%
